Reference: US8129415B2
Some entries share one result that the patent states for a list of compounds.

Legend:
[1] = test system: Peronospora parasitica; test: In vivo test on Peronospora parasitica (crucifer downy mildew), cabbage plants; details: dose of 500 ppm, preventive spray on cabbage plants 24 hours before contamination, grading 5 days after contamination vs control plants
[2] = test system: Pythium ultimum; test: Cell test on Pythium ultimum (damping-off); assay type: cell-based; details: dose of 6 ppm, OD at 620 nm after 5 days at 20° C. in comparison with a control
[3] = test system: Plasmopara viticola; test: In vivo test on Plasmopara parasitica (vine downy mildew), vine plants; details: dose of 500 ppm, preventive spray on vine plants 24 hours before contamination, grading 7 to 8 days after contamination vs control plants

SMILES	protection [1]	protection [2]	protection [3]
CCCC(=O)Nc1nc(CON=C(c2ccccn2)n2nnnc2C)cs1 [compound 2]	at least 70%		
C=C(C)C(=O)Nc1nc(CON=C(c2ccccn2)n2nnnc2C)cs1 [compound 3]	at least 70%	at least 70%	
CCCCCC(=O)Nc1nc(CON=C(c2ccccn2)n2nnnc2C)cs1 [compound 4]	at least 70%	at least 70%	
Cc1nnnn1C(=NOCc1csc(NC(=O)c2ccccc2)n1)c1ccccn1 [compound 5]	at least 70%	at least 70%	
Cc1nnnn1C(=NOCc1csc(NC(=O)C2CC2)n1)c1ccccn1 [compound 14]	at least 70%		
Cc1nnnn1C(=NOCc1csc(NC(=O)NCCc2ccc(Cl)cc2Cl)n1)c1ccccn1 [compound 16]		at least 70%	
Cc1nnnn1C(=NOCc1csc(NC(=O)NCCc2ccc(Cl)c(Cl)c2)n1)c1ccccn1 [compound 17]		at least 70%	
Cc1nnnn1C(=NOCc1csc(NC(=O)NCCc2ccccc2)n1)c1ccccn1 [compound 18]	at least 70%	at least 70%	
Cc1nnnn1C(=NOCc1csc(NC(=O)NCCc2ccc(F)cc2)n1)c1ccccn1 [compound 20]	at least 70%	at least 70%	
COc1ccc(CCNC(=O)Nc2nc(CON=C(c3ccccn3)n3nnnc3C)cs2)cc1 [compound 22]		at least 70%	
COc1cccc(CNC(=O)Nc2nc(CON=C(c3ccccn3)n3nnnc3C)cs2)c1 [compound 23]		at least 70%	
Cc1nnnn1C(=NOCc1csc(NC(=O)NCCc2cccc(Cl)c2)n1)c1ccccn1 [compound 24]		at least 70%	
COc1ccccc1CNC(=O)Nc1nc(CON=C(c2ccccn2)n2nnnc2C)cs1 [compound 25]		at least 70%	
CCCCCNC(=O)Nc1nc(CON=C(c2ccccn2)n2nnnc2C)cs1 [compound 27]	at least 70%	at least 70%	at least 70%
Cc1nnnn1C(=NOCc1csc(NC(=O)NC(C)(C)C)n1)c1ccccn1 [compound 28]		at least 70%	
CCCCCOC(=O)Nc1nc(CON=C(c2ccccn2)n2nnnc2C)cs1 [compound 30]	at least 70%	at least 70%	at least 70%
Cc1nnnn1/C(=N/OCc1csc(NC(=O)C(C)(C)C)n1)c1ccc(Cl)nc1 [compound 31]	at least 70%	at least 70%	at least 70%
Cc1nnnn1C(=NOCc1csc(NC(=O)C2CCCCC2)n1)c1ccc(Cl)nc1 [compound 32]		at least 70%	
CCCCCC(=O)Nc1nc(CON=C(c2ccc(Cl)nc2)n2nnnc2C)cs1 [compound 35]	at least 70%	at least 70%	at least 70%
Cc1nnnn1C(=NOCc1csc(NC(=O)c2ccccc2)n1)c1ccc(Cl)nc1 [compound 36]		at least 70%	
Cc1nnnn1C(=NOCc1csc(NC(=O)CCCc2ccccc2)n1)c1ccc(Cl)nc1 [compound 37]		at least 70%	
Cc1nnnn1C(=NOCc1csc(NC(=O)C2CC2)n1)c1ccc(Cl)nc1 [compound 39]	at least 70%	at least 70%	at least 70%
Cc1nnnn1C(=NOCc1noc(-c2ccc(C(F)(F)F)cc2)n1)c1ccc(Cl)nc1 [compound 41]		at least 70%	
CCCCCNC(=O)Nc1nc(CON=C(c2ccc(Cl)nc2)n2nnnc2C)cs1 [compound 46]	at least 70%	at least 70%	at least 70%

SMILES	protection [1]	protection [2]	protection [3]
Cc1nnnn1C(=NOCc1csc(NC(=O)NC(C)(C)C)n1)c1ccc(Cl)nc1 [compound 47]		at least 70%	
Cc1nnnn1C(=NOCc1csc(-c2cccs2)n1)c1ccc(Cl)nc1 [compound 51]		at least 70%	
Cc1nnnn1C(=NOCc1csc(NC(=O)c2ccc(C(C)(C)C)cc2)n1)c1ccc(Cl)nc1 [compound 55]		at least 70%	
COc1ccc(C(=O)Nc2nc(CON=C(c3ccc(Cl)nc3)n3nnnc3C)cs2)cc1 [compound 57]		at least 70%	
Cc1nnnn1C(=NOCc1csc(NC(=O)C2CCCC2)n1)c1ccc(Cl)nc1 [compound 58]	at least 70%	at least 70%	
Cc1nnnn1C(=NOCc1csc(NC(=O)c2cccs2)n1)c1ccc(Cl)nc1 [compound 59]	at least 70%	at least 70%	
Cc1ccccc1C(=O)Nc1nc(CON=C(c2ccc(Cl)nc2)n2nnnc2C)cs1 [compound 60]	at least 70%	at least 70%	at least 70%
COc1ccc(-c2nc(CON=C(c3ccc(Cl)nc3)n3nnnc3C)no2)cc1 [compound 65]		at least 70%	
CCCOC(=O)Nc1nc(CON=C(c2ccc(Cl)nc2)n2nnnc2C)cs1 [compound 67]	at least 70%	at least 70%	
Cc1nnnn1C(=NOCc1csc(NC(=O)Oc2ccccc2)n1)c1ccc(Cl)nc1 [compound 68]		at least 70%	
CCCCCOC(=O)Nc1nc(CON=C(c2ccc(Cl)nc2)n2nnnc2C)cs1 [compound 75]	at least 70%	at least 70%	
Cc1ccc(OC(=O)Nc2nc(CON=C(c3ccc(Cl)nc3)n3nnnc3C)cs2)cc1 [compound 76]		at least 70%	
CCCC(=O)Nc1cccc(CON=C(c2cccc(C)n2)n2nnnc2C)n1 [compound 90]	at least 70%		
Cc1cccc(C(=NOCc2cccc(NC(=O)C3CC3)n2)n2nnnc2C)n1 [compound 91]	at least 70%		
CCCCCC(=O)Nc1cccc(CO/N=C(\c2cccc(C)n2)n2nnnc2C)n1 [compound 92, O-[2-(Pentylcarbonylamino)pyridin-6-yl]methyl-(6-methylpyridin-2-yl)-(5-methyltetrazol-1-yl)methanone Oxime]	at least 70%	at least 70%	at least 70%
C=C(C)C(=O)Nc1nc(CON=C(c2cccc(C)n2)n2nnnc2C)cs1 [compound 97]		at least 70%	
Cc1cccc(C(=NOCc2csc(NC(=O)NCCc3ccccc3)n2)n2nnnc2C)n1 [compound 107]	at least 70%		
COc1ccccc1CNC(=O)Nc1nc(CON=C(c2cccc(C)n2)n2nnnc2C)cs1 [compound 108]	at least 70%	at least 70%	
COc1ccncc1C(=NOCc1csc(NC(=O)c2ccccc2)n1)n1nnnc1C [compound 137]		at least 70%	
COc1ccncc1C(=NOCc1csc(NC(=O)C(C)(C)C)n1)n1nnnc1C [compound 142]		at least 70%	
CCCCCC(=O)Nc1nc(CO/N=C(\c2ncccc2C)c2nnnn2C)cs1 [compound 158, O-(2-Pentylcarbonylmino-1,3-thiazol-4-yl)methyl-(3-methylpyridin-2-yl)-(1-methyltetrazol-5-yl)methanone oxime]	at least 70%	at least 70%	
Cc1cccnc1C(=NOCc1csc(NC(=O)Cc2ccccc2)n1)c1nnnn1C [compound 159]	at least 70%		
CCCCCCCCC(=O)Nc1nc(CON=C(c2ncccc2C)c2nnnn2C)cs1 [compound 160]		at least 70%	
